No constants are given. Whether binding was seen depends on the method and setting. In cells and extracts the contact can be indirect. Here binding means that the protein was enriched with, or labelled near, the bait; the list need not be complete.

To fix the notation:
B1: Sec6 (protein, UniProt O74846 1-752)
chain: MTAAASDDAVYNKVADILRQCEDFHRLSTHIERFEREQASLNMHVKTELEKHVEAVELGKLALHDAQTKRVKLLQELHNMLTLCESAREMVDEFPLISRMSRIYKNCYATKQMISQLNNLVKETDVIEDMLREDLELDSDMPNLLRAHYKLSKLREFREEALYQASLEGQSDLPITLENSFSNLNTLSDNFDRLVLNFCRNIFQLVKSGHIKTIVQIFKIVEAEESSDEVLKSIRDAKSSLPDSQDGPFLSLQGMTRQLRNFRLRVLEEFQGAAAENFQRAWVSYLEDGSGELNLDFIFEDLKVAFYVLPDLTPPSYNIAKTFASIYQECLVGLVTKAVSLDTPAAVYLYLINFHREYRKFFEENAPFSVDEVEPGLEDGKDGILVREYTRLFTQKIREWSDKLFQSSVDTFMKRESEPELDSDGNYGLQGTIIFFQMITQQINIISHTNNSDVVGIVLSSIMYIMQSMQDQWKSVMRSELSQQLSGNPESVPPGLMEYLLAVANDNLKCAGFMDNTLLNTFELITSEREEDLREAFGKTVDGYILISDIGVSQIVAIISNDVKPALTSLFQPNWYQSSNMKLIVDTFRDYIVDCIEHMVPGLFDVFLLEASNALTISYLRSIFNKNACFDGDNAIQQIRSDIALAIRVFGEYMAAEHLRSTFEPIEKLLLGMLDADVETVSEYFHLLKEAYWDAPLSLVEAVLQNRTDLEKSIIKKMIDIVRHENDSLQIDTSQQPTVFSQVTSLSGSSIL
B2: Sec15 (protein, UniProt O75006 1-768)
chain: MDIDVLEFVDKIASIESAGDTLDRLPQLISLACEKGQETQVYERLNELASKSAIRVEQLSAENNQDFSKSVNQLSVVRSELRSLQSLMADLNTDIQASGRDLQNMKQQLNSLSTSERFLTKYHNLVRSCMQVLHQVQYSQELLSKKQYLPTLRICSEISEVHLKRLDGLGMYSTIQQYIVTTKEAICSAVMEDLHEWLFSIRQKLPLVGKSCSQQIDEARRRWAREYKEDLVNLSSKTSISLELYLLEMMDFSPLDNEIVKISFEPLYICLQVHSYLGLLSSFRSSFERDRRRQQEFLAPKSLTTLDMAVVSEWLNSIAGFMIVEYYILQCIPNFRSYEEVQNIWTIICEKLVETILSVAFTEQSTTTIIKLKNQIVLLMHTMERFGFSVESLRNLCVELIDAFGGALILKHSVFFEEAFEKDVYAPMIVETQEEYDHYIAPYWNFPSEPFPRTMSFSKMCPLCCTTLSKFVRHFFMFLNDSVILATEVNEKAPRFYRRFILRSLVDRLKSLYPKLALSQMSQLVKNFYAFEDPLLQIEKSLVLNKPIHQIGAEASSSNNVKSTELLEGLANARKSALHEIFVKINLKIDDFLGLAEYDWTTTQVRKDVSGYLQEMVTYLQTMYLESLAGLPKHDKSYVYLETLDHLCTAMVDLLSDPSIRKVTTAAAEGFKLDVEYLESFAAQVPDQSIVNADSFIELRQCANLLLGDNMEEYLDTDKFMRDFNRLQPAVAIKFLERHINNYSANPLSNDRPKRRAIEILIATLKKR
B3: Sec8 (protein, UniProt O74562 1-1073)
chain: MDTRGYSETKKGRYPVGKKSLESPNGYSNYGTSMDNELSSEYASRGMHIGDLENLVNEIEDEWKDLGREDYQPISTALELLDDSSFGRDYKSFLNVYDRISAALQTIAHTHKDDFTRGISAYGEIMEGIQKCNSRIIALKQSLEASQECIGNTNSKELQQTLARSSQYKKVISVLKELNEANQLFDNFHTLVDSKQYYHASDLIRRVWDELSRSDFDGILVVEQFKSRMTGLLSHLEDILSEELVSITFLKDAVAYPIVSYCSPNPLRETSNPYFLRDFLKNNANTSTLGQSEQLRYLEEALSLKLSDCLKMDYGRDSLRDIRIVLESLNLLGKLPNAISSLKSRTSAEMFTTVDSTSRAIVNKYSLGNNVSTVNPFSKSLYDIGLHAETDREHTMISEFLTNLFTKLRCVLMHYRGISEFMTKLETKTPKHASSSHKSSIMSVNSDPTSPKVSKFDTSDSTFPFDTLLQAFESEIRLMLKDYLISKEEYIENSGNFVVGTEMSIYNLPGENEEDKLFDVTNEIAVENKSNAFYARINELVNEKAPELILNKSNASVSTIELFSGSSKEIVRLAGHVVFVGPSVFHASSVLPQTVFFLEDSVSILKNPNIPPQFAVNFMKEFLRGSYIPQLYKFMSSHFDTIMKDVGAFQLHRDWKIYSKIPIFKCHVAIVQYFHDLQDYLPIVALNLVEFYELLHTLLVRFRNHCSDYLSDLCRTAVLKEYKHVNEDTEDVDDTVRVKLLHDDVTYPQFIKFLKQKNPSLEGLNELCRMENKRLLQYEDRAITSEVKLPVSVLSKDSDLVNSVSYLHNSMEWFLQRCFSRFMNGSRRMNVLQQNQANFGGDFLPIDNLLGNNSDLMKGAYKEVFDSLQRLQFDALLLIRMEVRLQYIHSINQSVNLPDYVVEYRGRPDASIMALNSTIVTTNLKLETCLNEWERRFVFQGLSELVDSSLYSIFYKIESMNRGSCLQMLKNMSAMIQILKTVKEIHGDVEFPKSSRVFGIYQNGAKKIIEHFIAAPKKELLPDVKQMVRIYYQRLMKDAKRNGRDDLYRQYQKKIGSVLTQFDNTVGGARKNP

This assay has as its target T1, Sec5-3mCherry (S. pombe) (UniProt O94598).
T1 sequence: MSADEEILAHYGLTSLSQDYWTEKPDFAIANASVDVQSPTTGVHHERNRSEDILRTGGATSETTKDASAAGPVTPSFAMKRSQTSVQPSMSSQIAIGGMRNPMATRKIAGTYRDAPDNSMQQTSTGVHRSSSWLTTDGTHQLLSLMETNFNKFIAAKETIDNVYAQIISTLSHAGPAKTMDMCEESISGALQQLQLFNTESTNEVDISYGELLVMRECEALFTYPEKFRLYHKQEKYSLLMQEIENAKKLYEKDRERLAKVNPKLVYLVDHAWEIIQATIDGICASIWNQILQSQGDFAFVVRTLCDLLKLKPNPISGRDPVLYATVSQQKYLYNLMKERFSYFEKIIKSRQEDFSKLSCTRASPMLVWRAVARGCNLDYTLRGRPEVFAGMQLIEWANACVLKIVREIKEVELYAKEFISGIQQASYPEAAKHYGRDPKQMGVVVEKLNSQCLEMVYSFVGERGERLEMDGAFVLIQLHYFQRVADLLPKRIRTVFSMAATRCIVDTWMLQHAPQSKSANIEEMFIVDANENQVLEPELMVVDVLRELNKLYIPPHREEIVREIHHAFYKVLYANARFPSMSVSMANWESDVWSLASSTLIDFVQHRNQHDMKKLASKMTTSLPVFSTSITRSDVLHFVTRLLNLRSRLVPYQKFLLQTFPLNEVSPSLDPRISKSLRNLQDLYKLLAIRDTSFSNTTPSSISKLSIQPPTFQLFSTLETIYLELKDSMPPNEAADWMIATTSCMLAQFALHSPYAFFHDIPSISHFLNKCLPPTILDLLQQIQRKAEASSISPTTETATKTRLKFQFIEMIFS
In words: affinity purification with mass spectrometry; Sec5-3mCherry immunoprecipitated with anti-tdimer2 antibody crosslinked to Protein G Dynabeads, 1 hr, from a 1:1 mix of SILAC extracts of cells treated with methanol (light) or 30 uM 3-BrB-PP1 (heavy, Orb6 inhibition) for 45 min; lysis buffer 50 mM Tris-HCl pH 7.5, 150 mM NaCl, 0.2% Triton X-100; five washes; SDS-PAGE, in-gel digestion, LC-MS/MS.
As to Sec3, the binding entry is listed as “binds”.

Take B1: the binding entry is “binds”. To B2 belongs “binds”; to B3, “binds”.

Values taken from article PMC6367570.
